Experimental data from patent US20210380703A1.
Where a chain is given by its changes, count along the chain named. No constants are given. Whether binding was seen depends on the method and setting. Where a sequence is shown, tags or fusion partners need not be part of it.

T1: His-tagged Mouse ACVR2B (mouse) (UniProt P27040)
T1 sequence (looked up): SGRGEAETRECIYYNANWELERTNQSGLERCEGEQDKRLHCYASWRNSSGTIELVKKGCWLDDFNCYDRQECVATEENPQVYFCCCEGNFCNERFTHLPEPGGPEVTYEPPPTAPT

T2: His-tagged Human ACVR2B (human) (UniProt Q13705)
T2 sequence (looked up): T1 sequence (looked up) with P101A

B1: 376_A06 (antibody, V domains shown)
VH: EVQLLESGGGLVQPGGSLRLSCAASGFTFDSYSMNWVRQAPGKGLEWVSGINYNSGYTSYADSVKGRFTISRDNSKNTLYLQMNSLRAEDTAVYYCARSATWHDTALDYWGQGTLVTVSS
VL: DIQMTQSPSSLSASVGDRVTITCRASQSILSYLNWYQQKPGKAPKLVIYYVSNRASGVPSRFSGSGSGTDFTLTISSLQPEDFATYYCQQSYDNPLTFGGGTKVEIK
B2: 365_F07 (antibody, V domains shown)
VH: B1 VH with D30S, G50N, S55G, T58K
VL: B1 VL with L33V, Y50A, V51A, S52T, N53S, N94L
B3: 376_B01 (antibody, V domains shown)
VH: B1 VH with S49A, S55G, A106H
VL: B1 VL with S31T, L33V, Y50A, V51A, S52T, N53S, D93N, N94L
B4: 365_D05 (antibody, V domains shown)
VH: B1 VH with S49A, S55G, A106H
VL: B1 VL with S31T, L33V, V47L, Y50A, V51A, S52T, N53S, D93N, N94S
B5: 369_G07 (antibody, V domains shown)
VH: B1 VH with D30S, S49A, S55G, A106H
VL: B1 VL with S31T, L33V, Y50A, V51A, S52T, N53S
B6: 373_G05 (antibody, V domains shown)
VH: B1 VH with D30S, S49A, S55G, A106H
VL: B1 VL with V47L, Y50A, V51A, S52T, N53S, R54L, D93E, N94L
B7: 376_B06 (antibody, V domains shown)
VH: B1 VH with D30S, S49A, T58K, S59G, A106H
VL: B1 VL with S31T, V47L, Y50A, V51A, S52T, N53S, N94L
B8: 373_E06 (antibody, V domains shown)
VH: B1 VH with S49A, T58K, A106H
VL: B1 VL with S31R, V47L, Y50A, V51A, S52T, N53S, R54L, A55H
B9: 374_C05 (antibody, V domains shown)
VH: B1 VH with S49A, T58K, A106H
VL: B1 VL with L30I, S31R, Y50A, V51A, S52T, N53S
B10: 369_A10 (antibody, V domains shown)
VH: B1 VH with S49A, S59G, A106H
VL: B1 VL with V47L, Y50A, V51A, S52T, N53S, D93E, N94L
B11: 375_G07 (antibody, V domains shown)
VH: B1 VH with S49A, A106H
VL: B1 VL with Y50A, V51A, S52T, N53S, R54L, N94L
B12: 370_E07 (antibody, V domains shown)
VH: B1 VH with S49A, G50N, S55G, S59G, A106H
VL: B1 VL with S31T, V47L, Y50A, V51A, S52T, N53S
B13: 367_G07 (antibody, V domains shown)
VH: B1 VH with S49A, G50N, S55G, S59G, A106H
VL: B1 VL with S31T, L33V, V47L, Y50A, V51A, S52T, N53S
B14: 373_B08 (antibody, V domains shown)
VH: B1 VH with S49A, G50N, T58K, S59G, A106H
VL: B1 VL with S31T, Y50A, V51A, S52T, N53S, R54L, D93E
B15: 373_B11 (antibody, V domains shown)
VH: B1 VH with D30S, S49A, G50N, T58K, S59G, A106H
VL: B1 VL with V47L, Y50A, V51A, S52T, N53S
B16: 372_D04 (antibody, V domains shown)
VH: B1 VH with D30S, S49A, G50N, S59G, A106H
VL: B1 VL with S31T, V47L, Y50A, V51A, S52T, N53S, R54L, A55H, N94L
B17: 365_F02 (antibody, V domains shown)
VH: B1 VH with D30S, S55G, T58K, S59G, S99G, T101N, A106H
VL: B1 VL with S31T, L33V, V47L, Y50A, V51A, S52T, N53S, A55H, N94T
B18: 367_C07 (antibody, V domains shown)
VH: B1 VH with D30S, G50S, S59G, S99G, T101N, A106H
VL: B1 VL with S31T, L33V, V47L, Y50A, V51A, S52T, N53S, D93N, N94L
B19: 369_A07 (antibody, V domains shown)
VH: B1 VH with D30S, S49A, S55G, T58K, S59G, S99G, T101N
VL: B1 VL with Y50A, V51A, S52T, N53S, D93E, N94S
B20: 370_H02 (antibody, V domains shown)
VH: B1 VH with S99G, T101N, A106H
VL: B1 VL with S31T, V47L, Y50A, V51A, S52T, N53S, D93E, N94S
B21: 366_D01 (antibody, V domains shown)
VH: B1 VH with D30S, S33G, N35H, G50S, S55G, S59G, S99A, T101N, A106H
VL: B1 VL with S31T, L33V, V47L, Y50A, V51A, S52T, N53S, D93E
B22: 371_C12 (antibody, V domains shown)
VH: B1 VH with D30S, S49A, T58K, S99G, T101N, A106H
VL: B1 VL with L30V, L33V, V47L, Y50A, V51A, S52T, N53S, N94T
B23: 371_G11 (antibody, V domains shown)
VH: B1 VH with D30S, S33G, G50N, S99G, T101N
VL: B1 VL with L33V, V47L, Y50A, V51A, S52T, N53S, R54L, N94S
B24: 372_B02 (antibody, V domains shown)
VH: B1 VH with D30S, S99G, T101N
VL: B1 VL with L33V, V47L, Y50A, S52T, N53S, R54L, D93E, N94T
B25: 372_D03 (antibody, V domains shown)
VH: B1 VH with D30S, S49A, T58K, S99G, T101N
VL: B1 VL with L33V, Y50A, S52T, N53S, A55H, N94S
B26: 373_A03 (antibody, V domains shown)
VH: B1 VH with D30S, S31D, S49A, G50N, S55G, S59G, S99G, T101N
VL: B1 VL with Y50A, V51A, S52T, N53S

Target: T1, His-tagged Mouse ACVR2B (mouse)
Experiment: ELISA, coated His-tagged mouse ACVR2B, 10-point

Row | Binder | binding
1 | B1 | no binding (tested: 1 µM (top of the dilution series))
2 | B2 | no binding (tested: 1 µM (top of the dilution series))
3 | B3 | no binding (tested: 1 µM (top of the dilution series))
4 | B4 | no binding (tested: 1 µM (top of the dilution series))
5 | B5 | no binding (tested: 1 µM (top of the dilution series))
6 | B6 | no binding (tested: 1 µM (top of the dilution series))
7 | B7 | no binding (tested: 1 µM (top of the dilution series))
8 | B8 | no binding (tested: 1 µM (top of the dilution series))
9 | B9 | no binding (tested: 1 µM (top of the dilution series))
10 | B10 | no binding (tested: 1 µM (top of the dilution series))
11 | B11 | no binding (tested: 1 µM (top of the dilution series))
12 | B12 | no binding (tested: 1 µM (top of the dilution series))
13 | B13 | no binding (tested: 1 µM (top of the dilution series))
14 | B14 | no binding (tested: 1 µM (top of the dilution series))
15 | B15 | no binding (tested: 1 µM (top of the dilution series))
16 | B16 | no binding (tested: 1 µM (top of the dilution series))

Target: T2, His-tagged Human ACVR2B (human)
Experiment: ELISA, coated His-tagged antigen, 10 pt

Row | Binder | binding
17 | B17 | no binding (tested: 1 uM)
18 | B18 | no binding (tested: 1 uM)
19 | B19 | no binding (tested: 1 uM)
20 | B20 | no binding (tested: 1 uM)
21 | B21 | no binding (tested: 1 uM)
22 | B22 | no binding (tested: 1 uM)
23 | B23 | no binding (tested: 1 uM)
24 | B24 | no binding (tested: 1 uM)
25 | B25 | no binding (tested: 1 uM)
26 | B26 | no binding (tested: 1 uM)

Target: T1, His-tagged Mouse ACVR2B (mouse)
Experiment: ELISA, coated His-tagged antigen, 10 pt

Row | Binder | binding
27 | B17 | no binding (tested: 1 uM)
28 | B18 | no binding (tested: 1 uM)
29 | B19 | no binding (tested: 1 uM)
30 | B20 | no binding (tested: 1 uM)
31 | B21 | no binding (tested: 1 uM)
32 | B22 | no binding (tested: 1 uM)
33 | B23 | no binding (tested: 1 uM)
34 | B24 | no binding (tested: 1 uM)
35 | B25 | no binding (tested: 1 uM)
36 | B26 | no binding (tested: 1 uM)

Target: T2, His-tagged Human ACVR2B (human)
Experiment: ELISA, coated His-tagged human ACVR2B, 10-point

Row | Binder | binding
37 | B1 | no binding (tested: 1 µM (top of the dilution series))
38 | B2 | no binding (tested: 1 µM (top of the dilution series))
39 | B3 | no binding (tested: 1 µM (top of the dilution series))
40 | B4 | no binding (tested: 1 µM (top of the dilution series))
41 | B5 | no binding (tested: 1 µM (top of the dilution series))
42 | B6 | no binding (tested: 1 µM (top of the dilution series))
43 | B7 | no binding (tested: 1 µM (top of the dilution series))
44 | B8 | no binding (tested: 1 µM (top of the dilution series))
45 | B9 | no binding (tested: 1 µM (top of the dilution series))
46 | B10 | no binding (tested: 1 µM (top of the dilution series))
47 | B11 | no binding (tested: 1 µM (top of the dilution series))
48 | B12 | no binding (tested: 1 µM (top of the dilution series))
49 | B13 | no binding (tested: 1 µM (top of the dilution series))
50 | B14 | no binding (tested: 1 µM (top of the dilution series))
51 | B15 | no binding (tested: 1 µM (top of the dilution series))
52 | B16 | no binding (tested: 1 µM (top of the dilution series))
